Results taken from article doi:10.1101/2022.12.21.520923 (bioRxiv, 2022).
No constants are given. Whether binding was seen depends on the method and setting. For part of these data: Binding seen in cells or lysates may run through a third protein. Some binding calls cover weakened binding; strength is not graded here. For part of these data: Tags and fused reporters may be left off the sequences shown. Blank lines part the entries; values can stand above or below the molecule they belong to.

Protein sequences, listed by entry. Tags and fused reporters are not part of them. Residues count along the entry.
UniProt Q00610, residues 1-364: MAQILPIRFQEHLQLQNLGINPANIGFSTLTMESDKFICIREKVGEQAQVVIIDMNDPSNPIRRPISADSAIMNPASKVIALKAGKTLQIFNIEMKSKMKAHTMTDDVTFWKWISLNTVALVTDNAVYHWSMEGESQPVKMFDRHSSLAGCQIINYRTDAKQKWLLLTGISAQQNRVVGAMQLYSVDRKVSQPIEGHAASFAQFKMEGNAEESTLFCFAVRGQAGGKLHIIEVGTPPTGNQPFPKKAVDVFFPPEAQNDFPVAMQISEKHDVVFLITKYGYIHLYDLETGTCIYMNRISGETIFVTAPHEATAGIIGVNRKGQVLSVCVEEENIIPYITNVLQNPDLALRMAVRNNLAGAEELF
UniProt Q13596: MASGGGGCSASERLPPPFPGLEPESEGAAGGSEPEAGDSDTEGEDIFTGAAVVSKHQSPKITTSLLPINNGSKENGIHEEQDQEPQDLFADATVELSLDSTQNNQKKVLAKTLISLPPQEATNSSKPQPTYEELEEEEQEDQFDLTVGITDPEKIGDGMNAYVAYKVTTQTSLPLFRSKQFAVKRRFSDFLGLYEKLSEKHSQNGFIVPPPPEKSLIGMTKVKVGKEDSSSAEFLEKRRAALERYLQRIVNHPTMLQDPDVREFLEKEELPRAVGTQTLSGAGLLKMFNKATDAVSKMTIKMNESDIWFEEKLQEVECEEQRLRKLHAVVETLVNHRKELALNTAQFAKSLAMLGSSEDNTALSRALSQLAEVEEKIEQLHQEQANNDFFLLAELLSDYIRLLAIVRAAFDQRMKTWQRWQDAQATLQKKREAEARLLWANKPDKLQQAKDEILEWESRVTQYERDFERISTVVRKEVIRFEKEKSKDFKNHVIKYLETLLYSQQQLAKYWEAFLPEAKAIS

Assays:
[1] = target: T1, full-length GST-p115 (UniProt O60763 1-962); experiment: pull-down
T1 sequence: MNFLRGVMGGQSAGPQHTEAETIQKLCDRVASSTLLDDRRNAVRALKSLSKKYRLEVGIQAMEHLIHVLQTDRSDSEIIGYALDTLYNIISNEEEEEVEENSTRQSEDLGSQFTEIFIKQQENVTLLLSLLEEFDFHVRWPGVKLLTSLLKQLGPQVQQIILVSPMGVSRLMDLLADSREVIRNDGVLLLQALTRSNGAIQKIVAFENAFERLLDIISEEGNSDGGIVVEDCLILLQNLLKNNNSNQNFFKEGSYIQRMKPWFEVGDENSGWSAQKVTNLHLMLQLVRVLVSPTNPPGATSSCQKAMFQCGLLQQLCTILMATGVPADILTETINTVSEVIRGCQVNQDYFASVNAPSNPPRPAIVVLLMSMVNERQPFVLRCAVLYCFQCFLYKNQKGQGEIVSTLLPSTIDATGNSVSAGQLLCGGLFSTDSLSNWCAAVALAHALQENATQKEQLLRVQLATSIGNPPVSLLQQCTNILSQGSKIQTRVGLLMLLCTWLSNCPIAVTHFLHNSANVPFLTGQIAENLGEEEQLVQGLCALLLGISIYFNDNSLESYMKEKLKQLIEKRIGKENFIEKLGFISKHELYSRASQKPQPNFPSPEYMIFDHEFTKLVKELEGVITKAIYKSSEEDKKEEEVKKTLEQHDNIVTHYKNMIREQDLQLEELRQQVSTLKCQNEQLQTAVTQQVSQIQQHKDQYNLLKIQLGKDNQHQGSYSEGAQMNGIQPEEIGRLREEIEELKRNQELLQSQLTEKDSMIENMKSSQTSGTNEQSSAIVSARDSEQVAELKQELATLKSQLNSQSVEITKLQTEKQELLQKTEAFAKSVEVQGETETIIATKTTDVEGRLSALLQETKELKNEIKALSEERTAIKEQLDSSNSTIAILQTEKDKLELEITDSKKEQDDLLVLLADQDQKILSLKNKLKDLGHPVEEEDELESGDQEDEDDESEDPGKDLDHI

[2] = target: CHC22 clathrin heavy chain (human (endogenous in HeLa and AB1190 myotubes)) (UniProt P53675); experiment: co-IP
[3] = target: CHC22 clathrin heavy chain (human (endogenous in HeLa and AB1190 myotubes)) (UniProt P53675); experiment: co-IP; remark: listed apart in the source
[4] = target: sfGFP-CHC22 wild-type (human) (UniProt P53675); experiment: co-IP
[5] = target: T2, sfGFP-ΔTD-CHC22 (human) (UniProt P53675); experiment: co-IP
T2 sequence: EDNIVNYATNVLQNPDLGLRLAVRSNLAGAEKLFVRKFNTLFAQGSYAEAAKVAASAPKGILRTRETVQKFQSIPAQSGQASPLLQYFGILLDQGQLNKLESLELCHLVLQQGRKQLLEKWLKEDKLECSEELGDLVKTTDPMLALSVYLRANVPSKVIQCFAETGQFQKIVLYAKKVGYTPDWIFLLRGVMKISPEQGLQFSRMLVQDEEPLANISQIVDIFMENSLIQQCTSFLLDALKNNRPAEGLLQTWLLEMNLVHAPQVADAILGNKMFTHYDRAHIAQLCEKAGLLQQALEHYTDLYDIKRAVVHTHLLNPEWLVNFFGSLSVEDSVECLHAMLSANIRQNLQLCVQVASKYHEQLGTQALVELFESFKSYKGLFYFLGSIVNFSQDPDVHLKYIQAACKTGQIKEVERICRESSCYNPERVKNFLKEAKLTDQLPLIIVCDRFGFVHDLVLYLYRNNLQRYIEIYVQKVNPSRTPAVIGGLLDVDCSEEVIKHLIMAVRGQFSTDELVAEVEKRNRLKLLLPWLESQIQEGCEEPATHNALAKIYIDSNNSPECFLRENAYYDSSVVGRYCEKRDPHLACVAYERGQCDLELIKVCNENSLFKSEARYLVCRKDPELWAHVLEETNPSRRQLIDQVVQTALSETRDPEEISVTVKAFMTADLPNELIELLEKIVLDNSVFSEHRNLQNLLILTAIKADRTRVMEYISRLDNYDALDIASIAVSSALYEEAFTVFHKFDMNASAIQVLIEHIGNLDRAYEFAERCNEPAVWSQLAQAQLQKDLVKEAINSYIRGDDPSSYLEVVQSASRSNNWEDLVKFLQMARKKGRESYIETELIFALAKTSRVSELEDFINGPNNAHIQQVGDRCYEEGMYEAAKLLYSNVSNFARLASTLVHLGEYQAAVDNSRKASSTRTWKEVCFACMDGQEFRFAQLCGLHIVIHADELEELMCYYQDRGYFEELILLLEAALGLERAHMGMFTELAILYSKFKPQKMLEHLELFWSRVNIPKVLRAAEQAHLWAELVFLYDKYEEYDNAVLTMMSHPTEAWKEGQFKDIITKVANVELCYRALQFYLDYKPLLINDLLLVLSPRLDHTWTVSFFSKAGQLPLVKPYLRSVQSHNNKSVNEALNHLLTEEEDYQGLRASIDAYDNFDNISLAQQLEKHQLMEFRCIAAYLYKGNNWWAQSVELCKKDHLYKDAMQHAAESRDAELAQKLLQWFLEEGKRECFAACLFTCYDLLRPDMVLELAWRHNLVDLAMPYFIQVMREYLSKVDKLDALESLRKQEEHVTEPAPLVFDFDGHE

[6] = target: CHC22 clathrin heavy chain (human (endogenous in HeLa and AB1190 myotubes)) (UniProt P53675); experiment: proximity ligation

- binding [1]: no binding (tested: 12.5 µg in 250 µl)
Molecule: His-SUMO CHC17 terminal domain (from UniProt Q00610 1-364) (domain or fragment)

- binding [2]: no binding
Molecule: SNX1 (endogenous) (from UniProt Q13596 1-522)

- binding [3]: binds
- binding [4]: binds
- binding [5]: binds
- binding [6]: binds
B1: p115 (endogenous) (protein, UniProt O60763 1-962)
chain: T1 sequence
